Source: PubChem BioAssay AID588590 (National Center for Advancing Translational Sciences (NCATS), 2011)
Screen size: about 390,000 compounds; about 4,000 (1%) were called active. Inconclusive means that the source gave no clear call. Such entries were picked first, then a sample of the others. Calls follow the shape of the dose curve; as a rule, active = well fitted inhibition curve with a large enough effect; inconclusive = small, poorly fitted or top-dose-only effect, or another doubt; inactive = no such curve, though single readings can be large or run the other way. A potency beside an inconclusive call is a rough fit, not a confirmed value.

By UniProt entry, the sequences of proteins in these tests, tags left out. Where a name states a change or a piece, a line headed by the entry shows the natural chain unless it says otherwise.
UniProt Q9UNA4: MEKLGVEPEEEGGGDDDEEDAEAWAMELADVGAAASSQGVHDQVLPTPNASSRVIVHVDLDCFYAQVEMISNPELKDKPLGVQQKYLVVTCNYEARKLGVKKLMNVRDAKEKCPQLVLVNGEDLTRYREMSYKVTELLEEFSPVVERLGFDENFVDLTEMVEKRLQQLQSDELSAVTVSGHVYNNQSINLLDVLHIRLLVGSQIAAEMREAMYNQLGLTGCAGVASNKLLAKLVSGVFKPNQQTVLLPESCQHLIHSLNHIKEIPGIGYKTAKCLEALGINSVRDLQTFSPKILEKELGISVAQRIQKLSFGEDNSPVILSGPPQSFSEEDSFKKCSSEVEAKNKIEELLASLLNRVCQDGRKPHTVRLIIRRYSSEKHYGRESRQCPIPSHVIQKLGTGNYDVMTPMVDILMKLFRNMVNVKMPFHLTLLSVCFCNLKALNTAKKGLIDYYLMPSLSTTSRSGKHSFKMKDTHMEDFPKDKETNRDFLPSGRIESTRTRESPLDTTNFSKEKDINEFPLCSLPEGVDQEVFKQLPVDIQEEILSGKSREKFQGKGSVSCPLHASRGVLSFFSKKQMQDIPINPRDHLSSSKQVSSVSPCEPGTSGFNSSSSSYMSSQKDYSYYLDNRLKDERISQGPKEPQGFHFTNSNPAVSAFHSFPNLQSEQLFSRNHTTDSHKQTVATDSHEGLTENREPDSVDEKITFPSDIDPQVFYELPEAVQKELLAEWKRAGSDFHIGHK

Each compound was assayed against DNA polymerase iota (Homo sapiens) (UniProt Q9UNA4) (assay: qHTS for Inhibitors of Polymerase Iota). Conditions: Pol iota fluorescent replication assay, 10 min; series mostly up to 115 µM; activity, negative = inhibition: at the top concentration.
Procedure, shortened: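 Pol iota at 10 nM preincubated 15 min with compounds at room temperature; reaction started with fluorescent substrate, 50 nM final. Fluorescence read kinetically at 0 and 10 min; buffer-only wells as negative control.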
Potency is read from the fitted curve at half-maximal effect.

Structure (SMILES) | Potency | activity, negative = inhibition
CCCN1C(=O)C(=O)c2cc(Cl)ccc21 | inconclusive: 0.708 µM [inhibitor, partial curve, poor fit] | –
COc1ccc(CCNC(=O)C2CC(c3ccccc3F)=NO2)cc1 (configuration not stated) | – | inactive: 16.3%
COc1cc(C2C3=C(Nc4nc(N)[nH]c(=O)c42)c2ccccc2C3=O)ccc1O (configuration not stated) | active: 14.1 µM | –
Nc1cc(N)[nH]c(=S)n1 | inconclusive: 79.4 µM [inhibitor, partial curve, poor fit] | –
O=C(NCCOCCn1c(=O)oc2ccccc21)Nc1ccc(F)cc1F | – | inactive: 2.46%
CCCCCCSc1nnc2[nH]c(=O)cc(N)n12 | – | inactive: -15.4%
COc1ccccc1N=Nc1ccc(O)c2ncccc12 | inconclusive: 70.8 µM [inhibitor, single point] | –
CCCc1cc(=O)[nH]c(SCc2nc(-c3ccccc3)no2)n1 | – | inactive: -25.3%
CCN1CCCC1CNC(=O)C1CCCN(S(=O)(=O)c2cccc3nsnc23)C1 (configuration not stated) | – | inactive: 28.3%
CCC1CCCCN1C(=O)c1ccc([N+](=O)[O-])o1 (configuration not stated) | – | inactive: 6.55%
CCOc1ccc(-n2ccnc(SCC(=O)Nc3cccc(OC)c3)c2=O)cc1 | inconclusive: 50.1 µM [inhibitor, partial curve, poor fit] | –
CCOC(=O)Cc1nnc(NC(=O)COc2ccc(C)cc2)s1 | inconclusive: 11.2 µM [inhibitor, partial curve, poor fit] | –
CCc1cc(C(=O)O)c(NC(=O)/C=C/c2ccc(OC)cc2)s1 | inconclusive: 10 µM [inhibitor, partial curve, poor fit] | –
CCN1C(=O)C2(C(C#N)=C(N)Oc3cc(C)oc(=O)c32)c2ccccc21 (configuration not stated) | – | inactive: 1.9%
O=C(O)/C(=C\c1ccco1)NC(=O)c1ccc(Br)o1 | inconclusive: 20 µM [inhibitor, full curve, poor fit] | –
O=C(O)CCc1ccc(-c2ccc(Br)cc2)n1CC(=O)O | inconclusive: 56.2 µM [inhibitor, full curve] | –
O=C(Nc1ccc2ncccc2c1)c1ccccc1Br | inconclusive: 15.8 µM [inhibitor, partial curve] | –
CCOC(=O)c1ccc(S(=O)(=O)Nc2cc(S(=O)(=O)Nc3ccc(OC)cc3)ccc2O)cc1 | inconclusive: 56.2 µM [inhibitor, partial curve] | –
COc1ccccc1C1C(C(=O)Nc2ccccc2)=C(C)Nc2nc(-c3ccccc3)nn21 (configuration not stated) | inconclusive: 89.1 µM [inhibitor, partial curve, poor fit] | –
Cc1ccc(NC(=O)CSc2nc3n[nH]c(C)c3c(=N)n2-c2ccccc2C)cc1C | inconclusive: 89.1 µM [inhibitor, single point] | –
c1ccc2c(c1)oc1c(Nc3ccc4c(c3)OCO4)ncnc12 | inconclusive: 39.8 µM [inhibitor, single point] | –
O=C1CC(N2CCSCC2)C(=O)N1c1cccc(Cl)c1 (configuration not stated) | inconclusive: 3.55 µM [inhibitor, partial curve, poor fit] | –
COc1cc(/C=N/NC(N)=S)ccc1OCC(=O)Nc1ccc(C)c(C)c1 | inconclusive: 17.8 µM [inhibitor, partial curve, poor fit] | –

In a second layout: entries from further up

| Structure (SMILES) | Potency | activity, negative = inhibition |
| --- | --- | --- |
| Cc1ccc(NC(=O)CSc2nc3n[nH]c(C)c3c(=N)n2-c2ccccc2C)cc1C | inconclusive: 89.1 µM [inhibitor, single point] | – |
| c1ccc2c(c1)oc1c(Nc3ccc4c(c3)OCO4)ncnc12 | inconclusive: 39.8 µM [inhibitor, single point] | – |

Record cards, as listed above. Values in the order: Potency	activity, negative = inhibition
Nc1cc(N)[nH]c(=S)n1 in the list: inconclusive: 79.4 µM [inhibitor, partial curve, poor fit]	–
O=C(O)/C(=C\c1ccco1)NC(=O)c1ccc(Br)o1 in the list: inconclusive: 20 µM [inhibitor, full curve, poor fit]	–

Following part.

Structure (SMILES) | Potency | activity, negative = inhibition
Cc1cc(NC(=O)COC(=O)c2cnccn2)ccc1Br | – | inactive: 13.9%
CC1CC(C)(C)N2C(=O)C3(Nc4ccccc4S3)c3cccc1c32 (configuration not stated) | inconclusive: 44.7 µM [inhibitor, partial curve, poor fit] | –
COc1ccc(Cl)cc1C(=O)CSc1nc(N)cc(N)n1 | inconclusive: 28.2 µM [inhibitor, partial curve, poor fit] | –
Cc1sc2ncnc(SCC(=O)NC(=O)NCc3ccco3)c2c1C | inconclusive: 8.91 µM [inhibitor, full curve, poor fit] | –
COc1cc(NC(=O)Cn2cnc3c(SC)nc(N)nc32)cc(OC)c1OC | – | inactive: 9.56%
CC1(C)CC(=O)C2=C(C1)C(c1cn(-c3ccccc3)nc1-c1ccccc1)C(C#N)=C(N)O2 (configuration not stated) | inconclusive: 56.2 µM [inhibitor, partial curve, poor fit] | –
Cc1nn(C)c(C(=O)NNC(=S)NCc2ccco2)c1Cl | inconclusive: 31.6 µM [inhibitor, partial curve, poor fit] | –
O=C(c1ccc2c(c1)OCCO2)C1CCN(C(=O)c2ccc(F)cc2)CC1 | inconclusive: 89.1 µM [inhibitor, single point] | –
O/C(=C\c1nc2ccccc2nc1/C=C(\O)c1ccccc1)c1ccccc1 | – | inactive: 30.5%
CCN(CC)c1ccc(/C=C/c2ccc3ccccc3n2)cc1 | inconclusive: 56.2 µM [inhibitor, partial curve, poor fit] | –
O=C(CCC(=O)N1CCSc2ccccc21)NCCc1ccccc1 | inconclusive: 89.1 µM [inhibitor, single point] | –
O=C(CCCN1C(=O)/C(=C\c2cccs2)SC1=S)Nc1cccnc1 | inconclusive: 79.4 µM [inhibitor, partial curve] | –
COc1ccc(NC(=O)CN(C)C(=O)Cc2coc3cc(C)c(C)cc23)cc1 | inconclusive: 3.16 µM [inhibitor, partial curve, poor fit] | –
O=C(Nc1cccc(Nc2ccccc2)c1)c1cnn2c1NC(=C1CC1)C=C2C(F)F | – | inactive: 11.3%
CC(C)(C)c1ccc(C(=O)Nn2cnnc2)cc1 | inconclusive: 100 µM [inhibitor, single point] | –
O=C(NNC(=O)c1ccc(NC(=O)c2ccccc2)cc1)Nc1ccccc1 | active: 39.8 µM | –
CCc1cc(=O)oc2c(C)c(OCC(=O)NCCN3CCOCC3)ccc12 | active: 79.4 µM | –
COc1cc(OC)cc(OC(=O)c2ccc3c(=O)n4c(nc3c2)CCC4)c1 | active: 39.8 µM | –
O=C(CSc1nnc(CNC(=O)c2cccs2)o1)NC1CCCCC1 | inconclusive: 3.55 µM [inhibitor, partial curve, poor fit] | –
COc1ccc2c(Cl)c(C(=O)N/N=C/c3ccc4c(c3)OCO4)sc2c1 | inconclusive: 4.47 µM [inhibitor, full curve, poor fit] | –
CCCCN(C)C(=O)C1CCC(Cn2c(=O)[nH]c3ccsc3c2=O)CC1 (configuration not stated) | inconclusive: 89.1 µM [inhibitor, partial curve, poor fit] | –
Cc1cc(NC(=O)c2cc(-c3ccc(F)cc3)on2)nn1Cc1ccc(Cl)cc1 | – | inactive: -3.05%
COc1ccccc1CNS(=O)(=O)c1c(C)nc2sc(C)cn2c1=O | – | inactive: 29.1%

Structure (SMILES) | Potency | activity, negative = inhibition
CCOc1ccc(-c2cc3c(=O)n(CC(=O)NCc4ccccc4)ccn3n2)cc1 | – | inactive: 1.08%
Cc1cccc(NC(=S)N(CCN(C)C)Cc2cc3cccc(C)c3[nH]c2=O)c1 | inconclusive: 89.1 µM [inhibitor, single point] | –
Cn1c(N/N=C/c2cccs2)cc(=O)n(C)c1=O | inconclusive: 31.6 µM [inhibitor, partial curve, poor fit] | –
O=C(O)c1ccccc1-c1nc2cc(Cl)ccc2c(=O)n1O | inconclusive: 89.1 µM [inhibitor, partial curve, poor fit] | –
Fc1cccc(/C=N/NC(=S)Nc2ccccc2Cl)c1 | inconclusive: 100 µM [inhibitor, single point] | –
CCCn1c(=N)c(C(=O)NCc2ccco2)cc2c(=O)n3cc(C)ccc3nc21 | inconclusive: 39.8 µM [inhibitor, full curve] | –
CCC(Sc1nc2ccncc2[nH]1)C(=O)Nc1cc(C)ccc1C (configuration not stated) | inconclusive: 0.631 µM [inhibitor, full curve, poor fit] | –
CC(=O)c1cccc(NC(=O)c2cc3sc(Cl)cc3n2C)c1 | inconclusive: 100 µM [inhibitor, single point] | –
CCCOC(=O)c1c(-c2ccccc2)nc(CC)c(C(=O)SCC)c1CCC | inconclusive: 0.126 µM [inhibitor, full curve, poor fit] | –
Cc1ccc(CNC(=O)c2ccc(N3Cc4ccccc4Oc4ncccc43)s2)cc1 | – | inactive: -3.48%
CCOc1ccc(C(=O)Nc2ccc(C(=O)OCc3cc(=O)n4c(C)csc4n3)cc2)cc1 | inconclusive: 56.2 µM [inhibitor, partial curve, poor fit] | –
Cc1ccc(C2N3CC4(C)CN2CC(c2ccccc2)(C3)C4=O)cc1 (configuration not stated) | – | inactive: 25.3%
Cc1nc(NC(=O)c2ccco2)sc1C(=O)O | – | inactive: 17.5%
CCn1cc(/C=C(\NC(=O)c2ccccc2Cl)C(=O)NCCCn2ccnc2)c2ccccc21 | inconclusive: 2.82 µM [inhibitor, partial curve, poor fit] | –
CCOC(=O)COc1ccc(C(c2c(C)[nH][nH]c2=O)c2c(C)[nH][nH]c2=O)cc1 | inconclusive: 35.5 µM [inhibitor, single point] | –
S=C(NCCCN(Cc1ccc(Cl)cc1)c1ccc(-c2ccccc2)cn1)NCCCN(Cc1ccc(Cl)cc1)c1ccc(-c2ccccc2)cn1 | inconclusive: 79.4 µM [inhibitor, partial curve] | –
Cc1ccc(S(=O)(=O)N(C)c2nc3ccccc3[nH]c2=S)cc1 | inconclusive: 15.8 µM [inhibitor, partial curve, poor fit] | –
COC(=O)c1ccccc1NC(=O)Cn1c(=O)n(-c2ccc(C)cc2)c(=O)c2ccccc21 | – | inactive: -11.3%
COc1ccccc1CCC(=O)OCC(=O)Nc1c(C)nn(-c2ccccc2)c1C | inconclusive: 63.1 µM [inhibitor, partial curve, poor fit] | –
COc1ccc(C2C(C#N)=C(N)Oc3cc4c(cc32)OCO4)cc1 (configuration not stated) | inconclusive: 8.91 µM [inhibitor, partial curve, poor fit] | –
O=c1cc(CSc2nnnn2-c2ccccc2)nc2nc[nH]n12 | – | inactive: -10%
